Laboratory results as given in article PMC10163288.
This is one part of the list.

B1: il10ra_site1_normal_mot_HHH_b2_00033_000000036_0001_41_54_H_._HHH_b2_05176_af2_0002_0000400015_0000001_0 (protein)
chain: SSSSSEEEEELKELLEKAKELIENGNPQEALEVLAEAVRLALKLGDQEAFQQIWELIKRLGSSSS
B2: il10ra_site1_normal_mot_HHH_b1_06789_af2_000000041_0001_1_20_H_._HHH_b2_05831_af2_0001_0000600036_0000002_0_af2pred_0001 (protein)
chain: SSSSSSSHEIDVRIALKVAKLTDDEEMIKRALEIAERTARIGNDPELEQLVEEVKEELESSSSSS
B3: il10ra_site1_sap_13_mot_8756ee2cf497b5429c717dfc0c0bcfd6_0001_000000186_0001_1_13_H_._HHH_b2_05518_af2_0001_0000600027_0000001_0_0001 (protein)
chain: SSSSDLEELARAAVRLIEQAIEWGDEERAKFALLALEMAAEETNDPELRELLEELEKLLRGSSSS
B4: il10ra_site1_normal_mot_HHH_b1_06994_000000193_0001_40_55_H_._HHH_b2_05823_0001_0000200021_0000001_1 (protein)
chain: SSSSSEVEELIRATARLARQAREAGDDRTVEFLLLAMEILLRENNDEEAEEILEELRQELSSSSS
B5: il10ra_site1_normal_mot_HHH_b2_06602_000000226_0001_1_16_H_._ems_3hM_3525_af2_0001_0000500014_0000001_0_af2pred_0001 (protein)
chain: SSSEEEIYRLLVKLYRIALKRNDEELEEIVKEISIIVAELLQNGDEERAKKVAEEAEEIVEEKSS
B6: il10ra_site1_normal_mot_HHH_b1_02997_000000220_0001_39_52_H_._HHH_b2_07229_0001_0000200012_0000001_0_af2pred_0001 (protein)
chain: SSSSSEEKREALELLREALELRRQGNPEEAEELVREALELAREAGDPELEFLAEFLLRQLSSSSS
B7: il10ra_site1_sap_24_mot_HHH_b1_03559_000000151_0001_22_39_H_._HHH_b1_08582_0001_0000300017_0000001_0_0001 (protein)
chain: SSSSSEIEEEIEKLRKELEELAEKGDLERFARVFARILRLVYQLGDEELLRELWRALKRQESSSS
B8: il10ra_site1_normal_mot_6bb093d23f5042b6c551c363657da53b_0001_1_000000153_0001_51_65_H_._HHH_b2_07765_af2_0001_0000500007_0000001_0 (protein)
chain: SSSSSSDELEELIEKIEEALEEGDEELVRELLQKLSRYAVELNDHEASRFAIEVAEELESSSSSS
B9: il10ra_site1_normal_mot_HHH_b1_05333_000000049_0001_1_19_H_._HHH_b1_03230_0001_0000100008_0000001_0 (protein)
chain: SSSSDVFERSLEIAKRALKLLLEAGDPEAAEYLFEVVRRHLEEAGNEELVQELEEFFEELSSSSS
B10: il10ra_site1_sap_28_mot_HHH_b2_03183_af2_000000055_0001_40_56_H_._HHH_b1_01516_0001_0000600037_0000001_0_0001 (protein)
chain: SSSSSMAEELAEAVERIAKQAYENGNPESARRLLEAALLVVKELGDEELLEELQELLEELSSSSS

What follows are binders tested against il10ra, Q13651 (assay: yeast display titration).

Apparent Kd, inactive:
B1 no binding seen
B2 no binding seen
B3 no binding seen
B4 no binding seen
B5 no binding seen
B6 no binding seen
B7 no binding seen
B8 no binding seen
B9 no binding seen
B10 no binding seen

Quoted at random: two entries already listed
Apparent Kd, inactive:
B1 no binding seen
B8 no binding seen
